Results: US20240299591A1 (priority 2021, published 2024)

Tested on: not listed separately
Assay: general procedure: Fmoc solid-phase peptide synthesis; 2-chlorotrityl polystyrene resin
Conditions: whole synthesis, 254 nm

| Molecule | final HPLC purity [%] |
| --- | --- |
| H-RKKPWFWG-OH | 83 |
| NH2-Arg-Lys-Lys-ala-Trp-Phe-Trp-Gly-COOH | 88 |
| NH2-Arg-Lys-Lys-phe-Trp-Phe-Trp-Gly-COOH | 90 |
| NH2-Arg-Lys-Lys-pro-Trp-Phe-Trp-Gly-COOH | 91 |

Same assay, conditions: whole synthesis, HPLC (254 nm)

| Molecule | final HPLC purity [%] |
| --- | --- |
| Cyclo(Arg-Lys-Lys-ala-Trp-Phe-Trp-Gly) | >99 |
| Cyclo(Arg-Lys-Lys-phe-Trp-Phe-Trp-Gly) | >99 |
| Cyclo(Arg-Lys-Lys-phe-Trp-Phe-Trp-Lys(CF)) | 91 |
| Cyclo(Arg-Lys-Lys-phe-Trp-Phe-Trp-Lys(CF)-Gly) | 76 |
| Cyclo(Arg-Lys-Lys-phe-Trp-Phe-Trp-Lys(Cy5)) | 93 |
| Cyclo(Arg-Lys-Lys-phe-Trp-Phe-Trp-Lys(Cy5)-Gly) | >99 |
| Cyclo(Arg-Lys-Lys-pro-Trp-Phe-Trp-Gly) | >99 |
| cyclo(RKKPWFWG) | >99 |

Tested on: reconstructed cornea-like epithelium (RhCE, EpiOcular™)
Assay: Viability of reconstructed cornea-like epithelium (eye irritation model)
Type: cell-based
Conditions: 10 μM
Method: FIG. 4a is a graph of the viability reconstructed cornea-like epithelium (RhCE, EpiOcular™) after incubation with MFIGA001. NC=Negative Control; PC=Positive Control. FIG. 4b is a graph of the viability reconstructed cornea-like epithelium (RhCE, EpiOcular™) after incubation with 10 µM of MFIGA001a and MFIGAF001b. NC=Negative Control; PC=Positive Control; A2=MFIGAF001a; and B1=MFIGAF001b.
MFIGAF001 was also assessed independently by a CRO (Evotec) in an OECD compliant reconstructed cornea-like epithelial cell model (RhCE, EpiOcular™).

| Molecule | Mean of OD |
| --- | --- |
| CN1/C(=C/C=C(/C=C/C2=[N+](C)c3ccccc3C2(C)C)c2ccc(C(=O)NCCCC[C@@H]3NC(=O)[C@H](Cc4c[nH]c5ccccc45)NC(=O)[C@H](Cc4ccccc4)NC(=O)[C@H](Cc4c[nH]c5ccccc45)NC(=O)[C@@H](Cc4ccccc4)NC(=O)[C@H](CCCCN)NC(=O)[C@H](CCCCN)NC(=O)[C@H](CCCNC(=N)N)NC(=O)CNC3=O)cn2)C(C)(C)c2ccccc21 [MFIGAF001a, Cyclo(Arg-Lys-Lys-phe-Trp-Phe-Trp-Lys(Cy5)-Gly)] (cyclo(FWK(X1)GRKK[dF]W)) | 3.282 |

A unit is not stated for every read-out. Where a SMILES comes first, the peptide text is derived from it. [ ]: non-standard residue; d: D form. The star is where a group is joined. X1 = CN1/C(=C/C=C(/C=C/C2=[N+](C)c3ccccc3C2(C)C)c2ccc(C(=O)*)cn2)C(C)(C)c2ccccc21
